{"source": "PubChem BioAssay AID1259308 (NCATS, 2017)", "purpose": "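Genes whose loss raises luciferase production in HEK293 cells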 (primary screen)", "cells": "human HEK293 embryonic kidney cells stably expressing firefly luciferase (HEK-CMV-Luc2-Hygro)", "reagent": "single siRNA against human genes, 0.8 pmol siRNA per well", "timing": "72 h", "read-out": "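Reporter luminescence and viable-cell signal on separate replicate plates, given as percent of non-targeting control and median/MAD z-scores, plus per-cell luciferase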", "direction": "total luciferase, z-score and total luciferase, % of control: higher = more reporter protein produced", "rule for the call": "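An siRNA counts as active if its total luciferase robust z-score exceeds 3; genes with two or more such siRNAs out of three were retested with fresh siRNAs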", "calls": "active = raised luciferase; inactive = no rise", "note": "The deposit covers about 59,000 reagents; shown is a part drawn at random. About 1,510 of them (2.6%) were called active. 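Calls use total luciferase alone and ignore viability, so some active siRNAs may act by altering cell number.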 A number with no mark means an inactive call. Reagents against one gene are numbered here. Further read-outs or replicates are left out here."}
{"gene":"POLR2H","reagent":1,"total luciferase, z-score":-2.95,"total luciferase, % of control":23.2}
{"gene":"POLR2H","reagent":2,"total luciferase, z-score":-2.74,"total luciferase, % of control":27.3}
{"gene":"POLR2H","reagent":3,"total luciferase, z-score":-2.06,"total luciferase, % of control":40.8}
{"gene":"STYK1","reagent":1,"total luciferase, z-score":0.0801,"total luciferase, % of control":83.5}
{"gene":"STYK1","reagent":2,"total luciferase, z-score":-0.158,"total luciferase, % of control":78.7}
{"gene":"STYK1","reagent":3,"total luciferase, z-score":-0.59,"total luciferase, % of control":70.1}
{"gene":"PDE6B","reagent":1,"total luciferase, z-score":0.864,"total luciferase, % of control":99.1}
{"gene":"PDE6B","reagent":2,"total luciferase, z-score":-1.35,"total luciferase, % of control":55.1}
{"gene":"PDE6B","reagent":3,"total luciferase, z-score":1.45,"total luciferase, % of control":111}
{"gene":"IPO11","reagent":1,"total luciferase, z-score":-0.1,"total luciferase, % of control":79.9}
{"gene":"IPO11","reagent":2,"total luciferase, z-score":-2.12,"total luciferase, % of control":39.8}
{"gene":"IPO11","reagent":3,"total luciferase, z-score":0.0196,"total luciferase, % of control":82.3}
{"gene":"GALK2","reagent":1,"total luciferase, z-score":-0.415,"total luciferase, % of control":73.6}
{"gene":"GALK2","reagent":2,"total luciferase, z-score":0.262,"total luciferase, % of control":87.1}
{"gene":"GALK2","reagent":3,"total luciferase, z-score":-0.0181,"total luciferase, % of control":81.5}
{"gene":"TMPRSS2","reagent":1,"total luciferase, z-score":0.197,"total luciferase, % of control":85.8}
{"gene":"TMPRSS2","reagent":2,"total luciferase, z-score":0.449,"total luciferase, % of control":90.8}
{"gene":"TMPRSS2","reagent":3,"total luciferase, z-score":-1.53,"total luciferase, % of control":51.6}
{"gene":"MRPL47","reagent":1,"total luciferase, z-score":-1.67,"total luciferase, % of control":48.6}
{"gene":"MRPL47","reagent":2,"total luciferase, z-score":0.165,"total luciferase, % of control":85.2}
{"gene":"MRPL47","reagent":3,"total luciferase, z-score":-1.15,"total luciferase, % of control":59}
{"gene":"HLA-F","reagent":1,"total luciferase, z-score":0.715,"total luciferase, % of control":96.1}
{"gene":"HLA-F","reagent":2,"total luciferase, z-score":0.282,"total luciferase, % of control":87.5}
{"gene":"HLA-F","reagent":3,"total luciferase, z-score":-0.733,"total luciferase, % of control":67.3}
{"gene":"PLCZ1","reagent":1,"total luciferase, z-score":-0.951,"total luciferase, % of control":63}
{"gene":"PLCZ1","reagent":2,"total luciferase, z-score":-0.977,"total luciferase, % of control":62.5}
{"gene":"PLCZ1","reagent":3,"total luciferase, z-score":-0.436,"total luciferase, % of control":73.2}
{"gene":"GRHL2","reagent":1,"total luciferase, z-score":-1.46,"total luciferase, % of control":52.8}
{"gene":"GRHL2","reagent":2,"total luciferase, z-score":0.215,"total luciferase, % of control":86.2}
{"gene":"GRHL2","reagent":3,"total luciferase, z-score":1.42,"total luciferase, % of control":110}
{"gene":"CIDEC","reagent":1,"total luciferase, z-score":0.908,"total luciferase, % of control":99.9}
{"gene":"CIDEC","reagent":2,"total luciferase, z-score":-0.57,"total luciferase, % of control":70.6}
{"gene":"CIDEC","reagent":3,"total luciferase, z-score":0.306,"total luciferase, % of control":88}
{"gene":"ZIC2","reagent":1,"total luciferase, z-score":-0.515,"total luciferase, % of control":71.6}
{"gene":"ZIC2","reagent":2,"total luciferase, z-score":-0.811,"total luciferase, % of control":65.8}
{"gene":"ZIC2","reagent":3,"total luciferase, z-score":1.54,"total luciferase, % of control":113}
{"gene":"BMPR1A","reagent":1,"total luciferase, z-score":1.4,"total luciferase, % of control":110}
{"gene":"BMPR1A","reagent":2,"total luciferase, z-score":0.775,"total luciferase, % of control":97.3}
{"gene":"BMPR1A","reagent":3,"total luciferase, z-score":-0.223,"total luciferase, % of control":77.5}
{"gene":"ENTREP1","reagent":1,"total luciferase, z-score":-0.709,"total luciferase, % of control":67.8}
{"gene":"ENTREP1","reagent":2,"total luciferase, z-score":0.272,"total luciferase, % of control":87.3}
{"gene":"ENTREP1","reagent":3,"total luciferase, z-score":1.78,"total luciferase, % of control":117}
